# No constants are given. Whether binding was seen depends on the method and setting. Some binding calls cover weakened binding; strength is not graded here.
# B1: PERK^T982A (protein, UniProt Q9NZJ5 30-1116)
# chain: AGRARGLPAPTAEAAFGLGAAAAPTSATRVPAAGAVAAAEVTVEDAEALPAAAGEQEPRGPEPDDETELRPRGRSLVIISTLDGRIAALDPENHGKKQWDLDVGSGSLVSSSLSKPEVFGNKMIIPSLDGALFQWDQDRESMETVPFTVESLLESSYKFGDDVVLVGGKSLTTYGLSAYSGKVRYICSALGCRQWDSDEMEQEEDILLLQRTQKTVRAVGPRSGNEKWNFSVGHFELRYIPDMETRAGFIESTFKPNENTEESKIISDVEEQEAAIMDIVIKVSVADWKVMAFSKKGGHLEWEYQFCTPIASAWLLKDGKVIPISLFDDTSYTSNDDVLEDEEDIVEAARGATENSVYLGMYRGQLYLQSSVRISEKFPSSPKALESVTNENAIIPLPTIKWKPLIHSPSRTPVLVGSDEFDKCLSNDKFSHEEYSNGALSILQYPYDNGYYLPYYKRERNKRSTQITVRFLDNPHYNKNIRKKDPVLLLHWWKEIVATILFCIIATTFIVRRLFHPHPHRQRKESETQCQTENKYDSVSGEANDSSWNDIKNSGYISRYLTDFEPIQCLGRGGFGVVFEAKNKVDDCNYAIKRIRLPNRELAREKVMREVKALAKLEHPGIVRYFNAWLEAPPEKWQEKMDEIWLKDESTDWPLSSPSPMDAPSVKIRRMDPFATKEHIEIIAPSPQRSRSFSVGISCDQTSSSESQFSPLEFSGMDHEDISESVDAAYNLQDSCLTDCDVEDGTMDGNDEGHSFELCPSEASPYVRSRERTSSSIVFEDSGCDNASSKEEPKTNRLHIGNHCANKLTAFKPTSSKSSSEATLSISPPRPTTLSLDLTKNTTEKLQPSSPKVYLYIQMQLCRKENLKDWMNGRCTIEERERSVCLHIFLQIAEAVEFLHSKGLMHRDLKPSNIFFTMDDVVKVGDFGLVTAMDQDEEEQTVLTPMPAYARHAGQVGTKLYMSPEQIHGNSYSHKVDIFSLGLILFELLYPFSTQMERVRTLTDVRNLKFPPLFTQKYPCEYVMVQDMLSPSPMERPEAINIIENAVFEDLDFPGKTVLRQRSRSLSSSGTKHSRQSNNSHSPLPSN
# Biological target: PERK^T982A (UniProt Q9NZJ5)
# Assay: non-reducing SDS-PAGE; A375 cells treated with DdBIC (20 uM, 5 h), lysed in 2x SDS loading buffer, no beta-mercaptoethanol, 4-12% gradient gel, western blot; total lysates and cytosolic fractions; also with OPA1 knock-down, Mito-Q, alpha-VE or hemin
binder,measurement,value
B1,binding,binds

# — article PMC12711971
